# Several values for one entry are separate records, joined by “and”; a condition that tells them apart may be missing. Equal values may be shown once. The list shows a part of the results.
# What was measured:
# Assay in all cases: protein microarray (ProtoArray v5.0), streptavidin-Alexa Fluor 647
# Settings in all cases: 3'-biotin; 20 mM Tris (pH 7.5), 5 mM MgCl2, 100 mM KCl, 0.1% Tween-20, A/T-rich and random oligonucleotide blockers; temperature not stated; high values mean tight binding
# [1] = system: Chloride channel protein ClC-Ka (human)
# [2] = system: Ciliary neurotrophic factor (human)
# [3] = system: Coiled-coil domain-containing protein 115 (human)
# [4] = system: Coiled-coil domain-containing protein 126 (human)
# [5] = system: Coiled-coil domain-containing protein 15 (human)
# [6] = system: Coiled-coil domain-containing protein 28A (human)
# [7] = system: Coiled-coil domain-containing protein 5 (human)
# [8] = system: Coiled-coil domain-containing protein 6 (human)
# [9] = system: Coiled-coil domain-containing transmembrane protein C7orf53 (human)
# [10] = system: Complement decay-accelerating factor (human)
# Copine-6 (human) = system: Copine-6 (human)
# [11] = system: Copper chaperone for superoxide dismutase (human)
# [12] = system: Cyclin-dependent kinase-like 3 (human)
# [13] = system: Cystathionine beta-synthase (human)
# [14] = system: Cysteine dioxygenase type 1 (human)
# [15] = system: Cytochrome b ascorbate-dependent protein 3 (human)
# [16] = system: Cytochrome b-c1 complex subunit 6, mitochondrial (human)
# [17] = system: Cytochrome b5 domain-containing protein 2 (human)
# [18] = system: Cytochrome c oxidase assembly protein COX19 (human)
# [19] = system: Cytochrome c oxidase polypeptide VIc (human)
sequence,measurement,setting,value
GGGAGGCTGAGGCAGG [G4-1 biotinylated (PQS2)],binding signal,[1],-0.332 z-score
same,binding signal,[2],-0.37 z-score
same,binding signal,[3],-0.345 z-score
same,binding signal,[4],-0.304 z-score
same,binding signal,[5],-0.338 z-score
same,binding signal,[6],4.95 z-score
same,binding signal,[7],-0.319 z-score
same,binding signal,[8],-0.342 z-score
same,binding signal,[9],-0.348 z-score
same,binding signal,[10],-0.325 z-score
same,binding signal,Copine-6 (human),-0.259 z-score
same,binding signal,[11],-0.347 z-score
same,binding signal,[12],6.26 z-score
same,binding signal,[13],-0.362 z-score
same,binding signal,[14],-0.341 z-score and -0.337 z-score
same,binding signal,[15],-0.292 z-score
same,binding signal,[16],-0.329 z-score
same,binding signal,[17],-0.278 z-score
same,binding signal,[18],-0.286 z-score
same,binding signal,[19],-0.325 z-score

# A section taken from the entries so far:
sequence,measurement,setting,value
GGGAGGCTGAGGCAGG [G4-1 biotinylated (PQS2)],binding signal,[13],-0.362 z-score
same,binding signal,[14],-0.341 z-score and -0.337 z-score

# — publication PMC5996148
